Measurements as given in publication PMC7862700.
The entries are a selection whose mix differs from that of the whole data set. For part of these data: At the low end of the ranking the order means little. The list shows a part of the results. For part of these data: The source does not settle which construct or isoform was used.

Columns and labels:
Assay in all cases: DAPPL (digital affinity profiling via proximity ligation, sequencing)
Details in all cases: 10 mM Tris-HCl pH 7.5, 50 mM NaCl, 1 mM DTT, 4% glycerol, room temperature, 30 min; GST-TFs on glutathione beads, 16-mer random dsDNA library, 0.1% …; high values mean tight binding; double strand, one strand shown; scale: fold enrichment (6-mer frequency, TF over GST control)
ETS1 = target: T1, ETS1 (UniProt P14921)
T1 sequence: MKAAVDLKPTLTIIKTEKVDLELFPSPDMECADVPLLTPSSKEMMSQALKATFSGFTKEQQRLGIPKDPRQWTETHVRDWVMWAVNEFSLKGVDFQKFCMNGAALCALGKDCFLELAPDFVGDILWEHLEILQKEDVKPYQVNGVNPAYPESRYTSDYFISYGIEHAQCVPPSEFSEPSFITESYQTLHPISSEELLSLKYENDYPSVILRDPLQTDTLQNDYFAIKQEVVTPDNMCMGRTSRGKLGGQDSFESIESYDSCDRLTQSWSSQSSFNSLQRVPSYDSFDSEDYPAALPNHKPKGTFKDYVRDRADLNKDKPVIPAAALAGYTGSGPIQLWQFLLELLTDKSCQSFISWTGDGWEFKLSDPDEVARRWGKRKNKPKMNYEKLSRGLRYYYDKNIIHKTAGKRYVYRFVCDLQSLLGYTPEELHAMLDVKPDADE

SPDEF = target: T2, SPDEF (UniProt O95238)
T2 sequence: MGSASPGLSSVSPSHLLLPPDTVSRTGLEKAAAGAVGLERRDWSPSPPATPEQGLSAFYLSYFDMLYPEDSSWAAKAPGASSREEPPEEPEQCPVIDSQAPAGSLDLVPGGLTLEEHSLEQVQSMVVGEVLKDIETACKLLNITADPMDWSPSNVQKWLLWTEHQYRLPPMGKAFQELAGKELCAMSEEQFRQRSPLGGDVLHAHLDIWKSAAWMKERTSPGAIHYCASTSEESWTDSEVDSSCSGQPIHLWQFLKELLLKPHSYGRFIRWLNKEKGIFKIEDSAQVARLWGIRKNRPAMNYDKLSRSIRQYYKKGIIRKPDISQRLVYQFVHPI

GABPA = target: T3, GABPA (UniProt Q06546)
T3 sequence: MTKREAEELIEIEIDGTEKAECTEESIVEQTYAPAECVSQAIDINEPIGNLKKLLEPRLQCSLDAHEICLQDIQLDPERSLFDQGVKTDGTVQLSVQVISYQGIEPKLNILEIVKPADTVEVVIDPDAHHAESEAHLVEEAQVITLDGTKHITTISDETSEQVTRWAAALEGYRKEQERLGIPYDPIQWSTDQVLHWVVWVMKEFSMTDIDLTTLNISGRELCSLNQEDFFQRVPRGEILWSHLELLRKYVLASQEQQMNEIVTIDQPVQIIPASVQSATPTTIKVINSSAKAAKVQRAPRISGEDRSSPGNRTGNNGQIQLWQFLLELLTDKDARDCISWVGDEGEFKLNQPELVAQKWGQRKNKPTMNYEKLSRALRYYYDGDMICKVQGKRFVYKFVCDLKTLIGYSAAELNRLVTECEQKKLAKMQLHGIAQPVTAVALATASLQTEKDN

Row | Sequence | binding signal (ETS1) | binding signal (SPDEF) | binding signal (GABPA)
1 | TCAATC | 1.04 | 0.923 | –
2 | TCGAGT | 0.94 | 0.882 | –
3 | TGCTGG | 1.01 | 1.15 | –
4 | CGAATG | 1.02 | 0.992 | –
5 | TCTAGG | 1.05 | 0.947 | –
6 | TTCTGG | 1.34 | 1.23 | –
7 | GCACAC | 0.98 | 0.944 | 0.967
8 | GACCCC | 0.978 | 0.941 | 0.975
9 | TCAGCA | 1.08 | 0.971 | –
10 | GACCGG | 1.04 | 1.19 | –
11 | GACTTA | 0.927 | 0.902 | –
12 | CATAGA | 0.952 | 0.98 | 0.953
13 | ATGCTA | 1.34 | 1.23 | –
14 | GTACTA | 1.07 | 1.1 | 1.12
15 | TCGTCG | 0.962 | 0.902 | 0.99
16 | ATTAAA | 1.17 | 1.14 | –
17 | TGGGAC | 0.922 | 0.915 | 0.925
18 | CAAGAA | 1.12 | 1.06 | –
19 | TGGGTG | 1.19 | 1.01 | 0.963
20 | ATGTGG | 1.11 | 1.05 | –
21 | TATGTC | 1.11 | 1.14 | –
22 | TCTGAC | 1.13 | 1.14 | –

Row | Sequence | binding signal (ETS1) | binding signal (SPDEF) | binding signal (GABPA)
23 | GCCGAT | 1.06 | 0.96 | –
24 | GCCAGA | 0.608 | 0.655 | 0.678
25 | TGATTG | 1.05 | 0.981 | 0.98
26 | AACTAT | 1.43 | 1.42 | –
27 | TGCCCA | 1.22 | 1.12 | –
28 | TCAGCC | 1.02 | 1.03 | 1.06
29 | CACATA | 1.2 | 1.11 | –
30 | TGTGGC | 1.04 | 0.993 | –
31 | AAACGA | 1.11 | 1.03 | –
32 | ACTAGA | 0.958 | 0.905 | –
33 | TAAGGA | 0.917 | 0.931 | 0.842
34 | GAAGTA | 1.84 | 2.1 | –
35 | CAAAGC | 1.1 | 1.06 | –
36 | CCTTGT | 1.35 | 1.37 | –
37 | CTAGAC | 0.958 | 0.925 | –
38 | CGTTTG | 1.1 | 1.01 | –
39 | ATGAGG | 0.944 | 0.903 | –
40 | CTCCCC | 1.47 | 1.28 | –
41 | AGCTGT | 0.959 | 0.929 | –
42 | AGATAA | 1.03 | 0.996 | –
43 | GTCCCC | 1.21 | 1.14 | –
44 | AGTCTC | 1.03 | 0.953 | –

From no. 41 up to 43, as listed above:
Row | Sequence | binding signal (ETS1) | binding signal (SPDEF) | binding signal (GABPA)
41 | AGCTGT | 0.959 | 0.929 | –
42 | AGATAA | 1.03 | 0.996 | –
43 | GTCCCC | 1.21 | 1.14 | –

(list continues)

Row | Sequence | binding signal (ETS1) | binding signal (SPDEF) | binding signal (GABPA)
45 | TGATCC | 1.19 | 1.63 | –
46 | AGCTGC | 0.989 | 0.98 | –
47 | ATATAG | 1.25 | 1.14 | –
48 | ATGTTA | 1.29 | 1.26 | –
49 | AGTTCT | 1.06 | 0.988 | –
50 | GCCCAC | 1.14 | 1.06 | –
51 | TTAGGC | 0.865 | 0.996 | –
52 | CTCTCG | 1.39 | 1.16 | –
53 | TGCGGC | 0.932 | 0.991 | –
54 | CAGATG | 1.09 | 0.985 | –
55 | TTATGG | 1.33 | 1.26 | –
56 | ACTGGT | 1.1 | 0.988 | –
57 | CCAAGC | 0.97 | 0.982 | –
58 | ATCTGC | 1.31 | 1.36 | –
59 | TCCGCT | 2.17 | 2.51 | –
60 | GCCTCT | 1.41 | 1.3 | –
61 | TGATCG | 0.985 | 0.914 | –
62 | AACACC | 1.03 | 1.15 | –
63 | ACCTTA | 1.24 | 1.3 | –
64 | TCCCTG | 1.41 | 1.19 | –
65 | CAGCTA | 1.05 | 0.881 | –
66 | GAAAAA | 1.21 | 0.988 | –

Row | Sequence | binding signal (ETS1) | binding signal (SPDEF) | binding signal (GABPA)
67 | AACTGT | 1.03 | 0.928 | –
68 | ACTTGA | 1 | 0.943 | –
69 | TAGCTG | 1.05 | 0.948 | –
70 | TTTCAA | 1.28 | 1.16 | –
71 | GCACGA | 1.04 | 1 | –
72 | AACCTA | 1.11 | 1.08 | –
73 | CCTGGC | 1.06 | 0.957 | –
74 | TATAAA | 1.22 | 1.21 | –
75 | ACCGCC | 1.39 | 1.29 | –
76 | GCCGAA | 1.07 | 0.887 | –
77 | AATATA | 1.4 | 1.23 | –
78 | CCGTTT | 1.28 | 1.57 | –
79 | GCCCAT | 1.09 | 0.92 | –
80 | AGTAAA | 1.08 | 0.946 | –
81 | TCCATG | 1.16 | 1.1 | –
82 | AACGCC | 1.11 | 0.942 | –
83 | AAGGCA | 1.01 | 0.897 | –
84 | ATTTAA | 1.2 | 1.24 | –
85 | CTCCAA | 1.34 | 1.33 | –
86 | ATCTTA | 1.07 | 1.12 | –
87 | TGGGTA | 1.1 | 0.967 | –
88 | ACCATT | 1.07 | 1 | –

Row | Sequence | binding signal (ETS1) | binding signal (SPDEF) | binding signal (GABPA)
89 | ACTATA | 1.34 | 1.42 | –
90 | GATAAT | 1.05 | 0.958 | –
91 | ACAGGA | 1.06 | 1.37 | –
92 | GCTGAC | 0.96 | 0.942 | –
93 | AGAGCT | 0.911 | 0.877 | –
94 | AGAAGT | 1.03 | 0.955 | –
95 | TGTTTT | 1.4 | 1.41 | –
96 | TTGACG | 1.11 | 0.945 | –
97 | GCTGCA | 1.04 | 0.903 | –
98 | TGTTCG | 1.04 | 1.03 | –
99 | AAGCAA | 1.05 | 0.946 | –
100 | GTATCT | 1.11 | 1.14 | –
101 | TATCAA | 1.06 | 0.947 | –
102 | TACAAT | 1.23 | 1.28 | –
103 | AATGTT | 1.67 | 1.44 | –
104 | CCCCAA | 1.21 | 1.11 | –
105 | CTAGCA | 1.19 | 1.16 | –
106 | CGATCA | 1.13 | 0.921 | –
107 | TCCGCC | 1.54 | 1.83 | –
108 | AAATAA | 1.31 | 1.25 | –
109 | TGGCCG | 1.06 | 0.979 | –
110 | ATTGCA | 1.16 | 1.18 | –

Record cards, from the list above. Order of values: binding signal (ETS1)	binding signal (SPDEF)	binding signal (GABPA)
GTATCT is listed as 1.11	1.14	–
CTAGCA is listed as 1.19	1.16	–
ACAGGA is listed as 1.06	1.37	–
CCCCAA is listed as 1.21	1.11	–
